# Assay results from PubChem BioAssay AID623989 (Broad Institute, 2012).
# Protein sequences, listed by entry. Tags and fused reporters are not part of them. Lines headed by an entry give the natural chain unless they say otherwise; changes in a name come on top.
# UniProt P49841: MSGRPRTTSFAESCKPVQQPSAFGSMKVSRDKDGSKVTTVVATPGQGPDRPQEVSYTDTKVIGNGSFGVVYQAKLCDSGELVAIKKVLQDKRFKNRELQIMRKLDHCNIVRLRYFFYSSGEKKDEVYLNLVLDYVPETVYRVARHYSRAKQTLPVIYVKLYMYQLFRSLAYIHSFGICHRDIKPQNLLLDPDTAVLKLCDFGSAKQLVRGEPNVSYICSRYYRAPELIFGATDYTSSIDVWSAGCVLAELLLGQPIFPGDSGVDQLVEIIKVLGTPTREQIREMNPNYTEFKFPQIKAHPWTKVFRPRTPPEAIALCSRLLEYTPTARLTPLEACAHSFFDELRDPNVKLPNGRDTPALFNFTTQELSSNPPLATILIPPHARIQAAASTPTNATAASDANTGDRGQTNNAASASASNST
# The shares of active, inactive and inconclusive entries below differ from those in the screen. Active and inactive are the calls of the source.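 Rule for the calls: active = curve fit gives half-maximal inhibition potency at or below twice the top tested dose in every run; inconclusive = runs disagree, flat partial inhibition, or poor curve fit; inactive = inactive in every run, flat, reversed or weak.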
# Target: Glycogen synthase kinase-3 beta (Homo sapiens) (UniProt P49841)
# Experiment: inhibition of human GSK3B activity – biochemical, microfluidics, dry powder samples, set 2, dose response (AID 623989)
# Details: recombinant GST-GSK3beta, Caliper mobility-shift peptide conversion, 60 min; at 35 µM (top of the series) unless noted
row,Compound,"activity change, negative = inhibition"
1,Nc1nonc1-n1nnc(C(=O)N/N=C/c2c(F)cccc2Cl)c1-c1ccc2c(c1)OCO2,inconclusive: -57.1% [at 0.5 µM]
2,Nc1nonc1-n1nnc(C(=O)N/N=C/c2cccc(Cl)c2)c1CN1CCCCCC1,inconclusive: -36.6%
3,COc1cc(C(=O)N2CCN(c3ccccn3)CC2)cc(OC)c1OC,inactive: -13.1%
